US12240912
These are yes or no findings as the source states them, for the method shown. Some results given as binding are weak or reduced against the parent protein; the word gives no strength.

The chains behind the UniProt entries cited, without tags or fusion partners. Residues count along the entry.
UniProt P01024, residues 23-1663: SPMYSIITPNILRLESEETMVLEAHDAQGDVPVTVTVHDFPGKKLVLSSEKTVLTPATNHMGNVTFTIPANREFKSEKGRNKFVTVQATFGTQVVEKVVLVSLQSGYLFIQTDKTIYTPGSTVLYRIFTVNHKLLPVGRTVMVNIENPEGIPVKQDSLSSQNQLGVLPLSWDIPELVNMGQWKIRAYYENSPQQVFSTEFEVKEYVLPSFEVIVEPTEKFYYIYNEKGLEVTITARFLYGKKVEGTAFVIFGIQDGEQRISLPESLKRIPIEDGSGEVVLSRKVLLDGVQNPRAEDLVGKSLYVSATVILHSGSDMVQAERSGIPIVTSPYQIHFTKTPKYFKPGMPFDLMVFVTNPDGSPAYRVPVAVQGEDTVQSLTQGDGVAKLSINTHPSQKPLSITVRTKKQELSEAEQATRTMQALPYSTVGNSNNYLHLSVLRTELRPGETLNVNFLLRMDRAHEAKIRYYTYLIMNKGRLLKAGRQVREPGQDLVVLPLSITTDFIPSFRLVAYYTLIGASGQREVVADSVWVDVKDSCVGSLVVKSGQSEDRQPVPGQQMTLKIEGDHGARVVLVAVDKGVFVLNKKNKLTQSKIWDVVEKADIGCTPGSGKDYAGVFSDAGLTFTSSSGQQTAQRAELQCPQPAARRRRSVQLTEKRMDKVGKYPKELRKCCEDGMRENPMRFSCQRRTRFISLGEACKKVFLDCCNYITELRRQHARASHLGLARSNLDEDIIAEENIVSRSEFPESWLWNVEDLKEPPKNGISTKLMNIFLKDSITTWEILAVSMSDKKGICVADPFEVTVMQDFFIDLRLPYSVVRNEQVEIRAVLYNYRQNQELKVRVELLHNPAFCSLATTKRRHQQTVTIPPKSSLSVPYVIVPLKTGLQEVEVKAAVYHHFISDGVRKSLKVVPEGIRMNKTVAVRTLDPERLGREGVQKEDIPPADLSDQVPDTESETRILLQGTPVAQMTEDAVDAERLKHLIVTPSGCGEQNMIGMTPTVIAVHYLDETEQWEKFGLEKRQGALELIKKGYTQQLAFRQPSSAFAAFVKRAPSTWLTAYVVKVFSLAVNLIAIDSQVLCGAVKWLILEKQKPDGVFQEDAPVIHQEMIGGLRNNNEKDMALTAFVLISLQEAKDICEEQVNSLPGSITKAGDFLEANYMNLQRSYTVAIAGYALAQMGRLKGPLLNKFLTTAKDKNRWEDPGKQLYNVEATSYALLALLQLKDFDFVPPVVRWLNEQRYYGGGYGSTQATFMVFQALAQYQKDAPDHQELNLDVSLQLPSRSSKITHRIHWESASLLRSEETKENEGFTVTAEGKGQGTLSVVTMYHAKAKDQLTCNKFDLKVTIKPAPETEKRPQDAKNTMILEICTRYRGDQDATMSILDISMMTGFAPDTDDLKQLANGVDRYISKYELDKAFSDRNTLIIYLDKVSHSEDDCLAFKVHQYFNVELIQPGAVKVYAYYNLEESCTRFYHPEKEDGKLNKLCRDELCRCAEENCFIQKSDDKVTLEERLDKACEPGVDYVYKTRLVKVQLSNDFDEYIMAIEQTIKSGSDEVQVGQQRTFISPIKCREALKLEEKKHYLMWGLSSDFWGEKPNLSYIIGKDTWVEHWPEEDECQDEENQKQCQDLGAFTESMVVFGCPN

Tests used:
C3MA [1] = molecular target: C3MA (UniProt P01024); assay: surface plasmon resonance
[2] = molecular target: Human C3 (native C3) (human) (UniProt P01024); assay: surface plasmon resonance
[3] = molecular target: Human C3 (native C3) (human) (UniProt P01024); assay: overview table, + indicates binding; method not given
C3MA [4] = molecular target: C3MA (UniProt P01024); assay: SPR; the sheet does not say which partner is on the chip
[5] = molecular target: Human C3 (native C3) (human) (UniProt P01024); assay: as above

Measured: binding

B1: DI62 (VHH)
VHH: QVQLVESGGGLVQAGGSLRLSCAASGRTFSDYTMGWFRQAPGKEREFVAGLSTGGSFTRYAASVEGRFTISRDNAKTTVYLQMNNLQPEDTAVYYCAADFTPYGTNWSRFREARDHYWGQGTQVTVSS
binds: all assays above

B2: D121 (VHH)
VHH: QVQLVESGGGLVQAGGSLRLSCVVSGSTFSDYAMGWYRQAAGEQRELVAAIYSTGRTNYIDSVKGRFTISRDNAKTTVYLQMNSLKPEDTAVYYCNLLGATTMINTKWGQGTQVTVSS
binds: [3]
